# The whole screen tested about 340,000 compounds, of which about 490 (0.14%) were called active. The shares of active, inactive and inconclusive entries below differ from those in the screen. Cut-off read from the data, not from the text of the source: active = inhibition above about 12%; inconclusive = no clear call, values can overlap the other calls; inactive = below about 7.3%.
# Protein sequences, listed by entry. Tags and fused reporters are not part of them.
# UniProt Q14145, whole entry, looked up: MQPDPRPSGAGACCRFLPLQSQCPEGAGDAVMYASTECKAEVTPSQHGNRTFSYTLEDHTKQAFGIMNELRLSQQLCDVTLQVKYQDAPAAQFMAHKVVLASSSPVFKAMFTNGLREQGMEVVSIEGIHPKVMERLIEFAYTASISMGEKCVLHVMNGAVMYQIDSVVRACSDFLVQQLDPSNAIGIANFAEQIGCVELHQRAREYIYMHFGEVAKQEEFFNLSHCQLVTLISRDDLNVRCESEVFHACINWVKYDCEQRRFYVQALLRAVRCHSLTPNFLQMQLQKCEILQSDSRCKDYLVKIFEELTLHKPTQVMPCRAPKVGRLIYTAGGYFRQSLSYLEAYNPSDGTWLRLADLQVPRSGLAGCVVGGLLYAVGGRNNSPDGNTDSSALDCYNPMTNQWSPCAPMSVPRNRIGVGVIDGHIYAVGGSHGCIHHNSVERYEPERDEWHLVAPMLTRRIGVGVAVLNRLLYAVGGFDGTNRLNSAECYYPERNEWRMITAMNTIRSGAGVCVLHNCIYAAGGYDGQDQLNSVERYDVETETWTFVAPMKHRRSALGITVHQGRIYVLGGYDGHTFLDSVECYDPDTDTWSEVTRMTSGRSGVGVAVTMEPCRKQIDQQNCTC
# Molecular target: Kelch-like ECH-associated protein 1 (Homo sapiens) (UniProt Q14145)
# Assay: disruptors of Keap1 binding to Nrf2 – biochemical, fluorescence polarization, single point, primary screen (AID 504523);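 note: human Keap1 Kelch domain with fluorescein labeled Nrf2 9mer peptide probe; 0% = neutral control wells and 100% = peptide positive control; higher means more block of Keap1 binding to Nrf2 peptide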
# Settings: Keap1 Kelch-Nrf2 peptide fluorescence polarization, 1536-well; at 9.4 µM; active compounds read high
row,SMILES,inhibition
1,COc1cccc(CN(c2ccccc2C(=O)O)S(=O)(=O)c2ccc(C)cc2)c1,inactive: -2.71%
2,Cc1nc2c(=O)[nH]c(=S)[nH]c2[nH]c1=O,inconclusive: 8.1%
3,COc1ccccc1C(=O)NCC(=O)OC(C)C(=O)N(C)C1CCCCC1 (centres undefined),inactive: -3.6%
4,CCCNC(=O)NC(=O)COc1ccc2oc3ccccc3c2c1,inconclusive: 7.5%
5,CC1=CC(=C(C#N)C#N)c2ccccc2N1C,inconclusive: -6.94%
6,O=C(N/N=C/c1ccc([N+](=O)[O-])o1)c1cn2ccc3ccccc3c2n1,inconclusive: -4.23%
7,CC(=O)Nc1n[nH]c(=S)s1,inactive: 4.89%
8,Cc1ccc(S(=O)(=O)N2CCN(C(=O)/C=C/c3ccccc3)CC2)cc1C,inactive: 4.33%
9,CCOc1ccc(C2/C(=C(\O)c3c(C)[nH]c(C(=O)OC)c3C)C(=O)C(=O)N2CCN(C)C)cc1 (centres undefined),inconclusive: 10.1%
10,COc1ccc(N(Cc2ccccc2)S(=O)(=O)c2cccc(C(=O)Nc3ncccc3C)c2)cc1,active: 22.2%
11,Cc1cnc(NC(=O)Cc2ccc(S(=O)(=O)N3CCOCC3)s2)s1,active: 13.4%
12,CCC(=O)Oc1ccc(C(=O)Nc2cccc(C(=O)c3ccccc3)c2)cc1,inactive: -1.56%
13,CC(=O)N/N=C/c1cc(C(C)C)cc(/C=N/NC(C)=O)c1O,inconclusive: 10.4%
14,CSc1nc2ncnc(N)c2[nH]1,inconclusive: 9.11%
15,CN1C=CC2=C(C#N)C(N)C(C#N)(C#N)[C@H](c3ccccc3)[C@H]2C1 (some centres undefined),inconclusive: 11.4%
16,CC(C)[C@H](NC(=O)OC(C)(C)C)c1nnc(SCC(=O)Nc2ccc(Br)cc2)o1,inconclusive: 4.58%
17,O=[N+]([O-])c1ccc(CSc2nnc(-c3cccnc3)o2)cc1,inactive: -0.361%
18,C/C(=N\Nc1ccccc1)c1cccc(N)c1,inconclusive: 8.85%
19,CCN(CC)c1ccc(/C=N/NC(=O)c2cccc(S(=O)(=O)Nc3ccccc3OC)c2)c(O)c1,inconclusive: 8.87%
20,ON=C1c2ccccc2-c2cc(Br)ccc21,inactive: -0.0835%
21,Cc1ccc(/C=N/NC(=O)CNC(=O)c2cccs2)cc1,inconclusive: 7.61%
22,CCN(CC)S(=O)(=O)c1cc(NS(=O)(=O)c2cc(Cl)ccc2Cl)ccc1C,inconclusive: 8.89%
23,O=C1c2cccc3c(N4CCCCC4)ccc(c23)C(=O)N1c1ccc(O)cc1,inconclusive: 4.39%
24,CC(C)N1CSC(=S)N(Cc2ccccc2)C1,inconclusive: 10.5%
25,O=C(c1cc(-c2ccncc2)nc2ccc(Br)cc12)N1CCN(Cc2ccc3c(c2)OCO3)CC1,inconclusive: 10.9%
26,O=S(=O)(O)c1ccc(O)c2cc(Nc3ccccc3)ccc12,active: 25.1%
27,COc1ccc2c(c1)c(C(=O)CN1CCN(C(=O)c3ccco3)CC1)c(C)n2C,inconclusive: 9.26%
28,N/C(=N\OC(=O)c1ccc(Br)cc1)c1ccncc1,inconclusive: 11.8%
29,O=c1ccc2cc3c([nH]c4ccc(Br)cc43)oc-2c1O,active: 55.4%

# Reformatted: entries from further up
row | SMILES | inhibition
6 | O=C(N/N=C/c1ccc([N+](=O)[O-])o1)c1cn2ccc3ccccc3c2n1 | inconclusive: -4.23%
7 | CC(=O)Nc1n[nH]c(=S)s1 | inactive: 4.89%
